{
  "sequences": {"note": "The chains behind the UniProt entries cited, without tags or fusion partners. Where a name states a change or a piece, a line headed by the entry shows the natural chain unless it says otherwise.", "UniProt P18054": "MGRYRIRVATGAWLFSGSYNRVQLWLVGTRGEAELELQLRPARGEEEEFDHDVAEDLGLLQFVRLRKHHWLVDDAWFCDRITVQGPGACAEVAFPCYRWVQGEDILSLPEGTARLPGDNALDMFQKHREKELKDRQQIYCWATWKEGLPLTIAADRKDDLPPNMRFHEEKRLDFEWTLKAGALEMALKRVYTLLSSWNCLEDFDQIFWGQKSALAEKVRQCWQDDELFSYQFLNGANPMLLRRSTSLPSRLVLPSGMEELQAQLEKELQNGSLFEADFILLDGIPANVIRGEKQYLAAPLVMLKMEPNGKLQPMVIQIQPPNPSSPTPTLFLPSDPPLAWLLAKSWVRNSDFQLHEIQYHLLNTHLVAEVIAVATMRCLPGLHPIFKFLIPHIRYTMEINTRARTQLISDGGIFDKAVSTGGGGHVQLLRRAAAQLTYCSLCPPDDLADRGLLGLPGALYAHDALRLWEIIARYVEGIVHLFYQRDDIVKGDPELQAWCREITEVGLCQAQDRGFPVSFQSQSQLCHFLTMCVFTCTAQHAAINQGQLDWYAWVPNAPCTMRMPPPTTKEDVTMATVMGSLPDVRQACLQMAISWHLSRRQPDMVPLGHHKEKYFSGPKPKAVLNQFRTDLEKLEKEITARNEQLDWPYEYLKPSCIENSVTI"},
  "source": "PubChem BioAssay AID1671190",
  "about": "(National Center for Advancing Translational Sciences (NCATS), 2021)",
  "note": "Screen size: about 580,000 compounds; about 6,100 (1.1%) were called active. Inconclusive results, whose numbers are uncertain, are shown with a selection of clear calls. Calls follow the shape of the dose curve; as a rule, active = well fitted inhibition curve with a large enough effect; inconclusive = small, poorly fitted or top-dose-only effect, or another doubt; inactive = no such curve, though single readings can be large or run the other way. Potencies of inconclusive entries are doubtful fits and often do not repeat. Potency is read from the fitted curve at half-maximal effect.",
  "data": [
    {"target": "Polyunsaturated fatty acid lipoxygenase ALOX12 (Homo sapiens) (UniProt P18054)", "assay": "Primary qHTS assay for inhibitors of human arachidonate 12S-lipoxygenase (ALOX12): Round 2", "settings": "purified 12hLO, xylenol orange hydroperoxide absorbance; series mostly up to 108 µM", "procedure,_shortened": "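Hydroperoxide product was detected by ferrous iron/xylenol orange as the 573 to 405 nm absorbance ratio. Arachidonic acid at 40 uM (final) was turned over for 30 min at room temperature by 150 nM human 12hLO, pH 7.0 Hepes buffer, after 15 min compound preincubation.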", "values": [
      {"smiles": "CCOc1cc(NC(=S)NCC2CCCO2)c(OCC)cc1NC(=O)c1cccc(F)c1", "note": "(configuration not stated)", "Potency": "inconclusive: 17.8 µM [inhibitor, full curve, poor fit]"},
      {"smiles": "C/C=C/Cn1c(SCc2ccc(F)cc2)nc2c1c(=O)[nH]c(=O)n2C", "Potency": "inconclusive: 56.2 µM [inhibitor, partial curve, poor fit]"},
      {"smiles": "COCC1CN(C2CCC2)CC12CCN(Cc1cccc(OC)c1OC)CC2", "note": "(configuration not stated)", "Potency": "inactive"},
      {"smiles": "O=C(c1cc(C2CC2)nc2ccccc12)N1CCCC(C(F)(F)F)C1", "note": "(configuration not stated)", "Potency": "inconclusive: 100 µM [inhibitor, single point]"},
      {"smiles": "O=C(Oc1ccc(C(=S)N2CCOCC2)cc1)c1cccc([N+](=O)[O-])c1", "Potency": "inconclusive: 100 µM [inhibitor, single point]"},
      {"smiles": "Cc1ccc(C2C(c3ccccc3)=C(O)C(=O)N2Cc2ccccc2)cc1", "note": "(configuration not stated)", "Potency": "inconclusive: 5.01 µM [inhibitor, full curve, poor fit]"},
      {"smiles": "Cc1ccc(S(=O)(=O)N2Cc3ccccc3CC2C(=O)Nc2ccc3c(c2)OCO3)cc1", "note": "(configuration not stated)", "Potency": "inactive"},
      {"smiles": "Cc1ccccc1/C=C(\\C#N)c1nc(-c2ccc(Cl)cc2)cs1", "Potency": "inconclusive: 141 µM [inhibitor, partial curve, poor fit]"},
      {"smiles": "CCOC(=O)c1oc2nc(CC(C)C)c3c(c2c1N)CCC3", "Potency": "inconclusive: 100 µM [inhibitor, partial curve, poor fit]"},
      {"smiles": "CCOC(=O)c1cc2n(n1)CC(C)(C(=O)NCCC(C)C)N(c1cc(Cl)ccc1OC)C2=O", "note": "(configuration not stated)", "Potency": "inconclusive: 100 µM [inhibitor, single point]"},
      {"smiles": "CSc1nc(C)c(CCC(=O)Nc2nc(-c3ccc4c(c3)CCO4)cs2)c(C)n1", "Potency": "inconclusive: 44.7 µM [inhibitor, partial curve, poor fit]"},
      {"smiles": "O=C(Nc1cccc(Cl)c1SC(F)F)C1CCCC1", "Potency": "inconclusive: 35.5 µM [inhibitor, partial curve, poor fit]"},
      {"smiles": "c1ccc(COc2cccc(CNCc3cccnc3)c2)cc1", "Potency": "inconclusive: 112 µM [inhibitor, partial curve, poor fit]"},
      {"smiles": "Cc1ccc(C(CCN)c2ccco2)cc1", "note": "(configuration not stated)", "Potency": "inconclusive: 56.2 µM [inhibitor, partial curve, poor fit]"},
      {"smiles": "COC(=O)C(NC(C)=O)(Nc1nc2c(s1)CCCC2)C(F)(F)F", "note": "(configuration not stated)", "Potency": "active: 17.8 µM"},
      {"smiles": "COc1ccc(C(=O)/C=C/c2ccc(Br)cc2)cc1CSCC(=O)O", "Potency": "inconclusive: 39.8 µM [inhibitor, partial curve, poor fit]"},
      {"smiles": "CCN(CC)C(=O)Cn1c(=O)n(-c2ccccc2)c(=O)c2c3c(sc21)CCC3", "Potency": "inconclusive: 5.01 µM [inhibitor, full curve, poor fit]"},
      {"smiles": "COc1ccccc1C(=O)Nc1ccc(C(=O)OCc2cc(=O)n3nc(C)sc3n2)cc1", "Potency": "inconclusive: 100 µM [inhibitor, partial curve, poor fit]"},
      {"smiles": "COc1ccc(NC(=O)CCS(=O)(=O)c2ccc3c(c2)OCCO3)cc1OC(F)F", "Potency": "inconclusive: 35.5 µM [inhibitor, partial curve]"},
      {"smiles": "CN(C)C(=O)CN1CCN(C(C(=O)O)c2c[nH]c3cc(F)ccc23)CC1", "note": "(configuration not stated)", "Potency": "inconclusive: 35.5 µM [inhibitor, partial curve]"},
      {"smiles": "Cc1ccc(-n2c(C(C)C)nc3oc4ccccc4c(=O)c3c2=O)cc1", "Potency": "inconclusive: 56.2 µM [inhibitor, partial curve, poor fit]"},
      {"smiles": "Cc1ccccc1-c1nnc(SCC(=O)Nc2nncs2)n1C", "Potency": "inactive"},
      {"smiles": "N#Cc1c(N)sc2c1CCCCCC2", "Potency": "active: 35.5 µM"},
      {"smiles": "CCOc1ccc(S(=O)(=O)NNC(=S)Nc2ccc(Br)cc2)cc1", "Potency": "inconclusive: 12.6 µM [inhibitor, full curve, poor fit]"},
      {"smiles": "CC1(C)OC(=O)N(CC(=O)N2CCC(Cc3noc(C4CC4)n3)CC2)C1=O", "Potency": "inactive"},
      {"smiles": "c1ccc(-c2nnc3sc(Cn4cccn4)nn23)cc1", "Potency": "inconclusive: 44.7 µM [inhibitor, single point]"},
      {"smiles": "O=C(CN1CCN(c2ccc([N+](=O)[O-])cc2)CC1)c1ccccc1", "Potency": "inconclusive: 31.6 µM [inhibitor, partial curve]"},
      {"smiles": "O=C(Cc1cccs1)N(Cc1ccccn1)C1CC1", "Potency": "inconclusive: 35.5 µM [inhibitor, partial curve, poor fit]"},
      {"smiles": "CCOc1c(I)cc(/C=C2\\NC(=O)NC2=O)cc1OC", "Potency": "inactive"},
      {"smiles": "COc1ccc(C2=CN(Cc3ccccc3)CCC2=O)cc1", "Potency": "inconclusive: 39.8 µM [inhibitor, partial curve, poor fit]"},
      {"smiles": "Cc1cc(C=O)cc(C)c1OCc1ccccn1", "Potency": "inconclusive: 20 µM [inhibitor, partial curve, poor fit]"},
      {"smiles": "COc1ccc2[nH]c(C)c(C(=O)CN3CCC(C)CC3)c2c1", "Potency": "inconclusive: 89.1 µM [inhibitor, partial curve, poor fit]"},
      {"smiles": "Nn1c(SCC(=O)NC(=O)NCc2ccco2)nnc1-c1ccc(OC(F)F)cc1", "Potency": "inactive"},
      {"smiles": "O=C(NCCSCc1cccs1)C1CCCC1", "Potency": "inactive"},
      {"smiles": "Cc1nc(N2CCN(C(=O)c3ccco3)CC2)c2c3c(sc2n1)CCCC3", "Potency": "inconclusive: 70.8 µM [inhibitor, partial curve, poor fit]"},
      {"smiles": "O=c1cc(-c2ccccc2Cl)c2c([nH]1)CCC2", "Potency": "inconclusive: 39.8 µM [inhibitor, partial curve, poor fit]"},
      {"smiles": "COc1ccc(C2=NOC(C(=O)Nc3cc(Br)ccc3O)C2)cc1OC", "note": "(configuration not stated)", "Potency": "active: 10 µM"},
      {"smiles": "N#CC1=C(N)OC2=C(C(=O)CC(c3ccccc3)C2)C1c1ccc(Br)cc1", "note": "(configuration not stated)", "Potency": "active: 11.2 µM"},
      {"smiles": "C/C(CC(=O)Nc1ccc(N(C)C)cc1)=N\\NC(=O)c1ccc(Cl)cc1Cl", "Potency": "inactive"},
      {"smiles": "O=S(=O)(CCN1CCOC2CCCCC21)c1ccccc1", "note": "(configuration not stated)", "Potency": "inconclusive: 56.2 µM [inhibitor, partial curve, poor fit]"},
      {"smiles": "COc1ccccc1NC(=O)Nc1nn(C)c2cccc(N(C)C)c12", "Potency": "inconclusive: 100 µM [inhibitor, single point]"},
      {"smiles": "CCc1ccc(CNC(=O)C2CCCN(S(=O)(=O)c3ccc4c(ccn4C)c3)C2)cc1", "note": "(configuration not stated)", "Potency": "inconclusive: 63.1 µM [inhibitor, partial curve, poor fit]"}
    ]}
  ]
}
